PubChem BioAssay AID1259254 – NCATS – 2017
The whole screen tested about 59,000 reagents; below is a random part of them. Over the whole deposit, about 1,550 (2.6%) are marked active. 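G2 share is only a proxy for re-replication; each gene was hit by three separate siRNAs, and active genes were retested.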 Reagents against one gene are numbered here. Further read-outs or replicates are left out here. Not given: the amount of reagent.

Purpose: 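Finding genes that stop cells copying their DNA twice in one cycle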 (primary screen)
Cell system: human HCT116 colorectal cancer cells
Reagent: single siRNA against human genes
Duration: 3 days
Detection: 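Nuclei stained with Hoechst and imaged; cell-cycle phase assigned by DNA content; G2 share scaled per plate, non-targeting siRNA 0%, GMNN siRNA 100%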
Scale: G2 robust z-score: higher = more G2 cells, more excess DNA replication
Hit rule: 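Active siRNAs have a G2 robust z of 5 or more median absolute deviations over the median, which in these data means about 38% or higher of GMNN control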

G2 robust z-score, by gene and reagent
SMIM29: #1 0.536 inactive; #2 0.355 inactive; #3 0.301 inactive
POLG2: #1 -1.02 inactive; #2 1.75 inactive; #3 -0.381 inactive
S100A5: #1 -0.836 inactive; #2 0.325 inactive; #3 -0.693 inactive
OR5W2: #1 0.79 inactive; #2 -0.528 inactive; #3 -1.15 inactive
TJP3: #1 -0.262 inactive; #2 -0.965 inactive; #3 5.77 active
NEIL1: #1 -0.802 inactive; #2 0.3 inactive; #3 -0.618 inactive

Reagents above called active, once more:
G2 robust z-score, by gene and reagent
TJP3: #3 5.77 active

More reagents follow:
G2 robust z-score, by gene and reagent
BOD1: #1 1.83 inactive; #2 -0.0205 inactive; #3 0.54 inactive
ITPRIP: #1 -0.857 inactive; #2 -0.504 inactive; #3 -0.0146 inactive
ANKHD1-EIF4EBP3: #1 -0.358 inactive; #2 -0.924 inactive; #3 -1.18 inactive
ARID3B: #1 -0.7 inactive; #2 -1.19 inactive; #3 0.0576 inactive
